Patent US9889087B2, “Intranasal delivery of β2-adrenergic receptor agonists for improving cognition in humans with down syndrome and compositions therefor” (priority 2014, dated 2018)
Like-named read-outs stand apart in the source and are kept apart here.

Columns and labels:
Ts65Dn and 2N mice [1] = test system: Ts65Dn and 2N mice
Experimental: At the end of this period, all mice were anesthetized, perfused, and the brain was extracted. The right hemisphere from each brain was fixed in 4% paraformaldehyde followed by dehydration. The methodology for staining has been published before. […] The left hemisphere was flash frozen and used for gene expression studies.
Before all staining(s), to inhibit endogenous peroxidase, 70-μm-thick floating sections were pre-incubated in 0.5% H2O2 in 50% methanol for 30 minutes at RT. This was followed by pre-incubating the sections in 0.1% triton and 10% normal serums(s) (NS, Vector Labs) for 1 hour at RT. This was followed by incubation in primary antibodies overnight at RT. […] For DCX staining the sections were kept in pre-warmed (37° C.) for 30 minutes before staining. This was followed by incubation in secondary anti-bodies that were diluted in 0.1% triton and corresponding 1% NS. The sections were then incubated in ABC Lite (1:1000, Vector) for 1 hour. Staining was terminated by incubating in DAB (0.66 mg/ml in tris-HCl) for 5-10 minutes.

interleukins = conditions: cited from earlier work
Ts65Dn and 2N mice [2] = test: Open field activity; format: in vivo, mouse; conditions: P=0.011 central, P=0.017 peripheral
Experimental: a) Open Field Activity. Prior to testing, the mice were handled for five days for habituation. […] Four hours later, the mice were tested for open field activity. The open field arena (450 mm×450 mm) had visual cues on the walls. […] The arena was cleaned after each session.

Fgf2 mRNA = conditions: DG micro-punches

SMILES: COc1ccc(CC(C)NCC(O)c2ccc(O)c(NC=O)c2)cc1 (centres unmarked) [formoterol]
- distance of GFAP-positive profiles from the DGC layer (Ts65Dn and 2N mice [1]; 2N mice): No significant effects
- density of GFAP-positive cell bodies or their processes (Ts65Dn and 2N mice [1]; DG, 2N and Ts65Dn mice): no effects
- distance of GFAP-positive profiles from the DGC layer (Ts65Dn and 2N mice [1]; Ts65Dn mice): significant increase
- gene expression for IL-1β and IL-1 receptor-II (interleukins; IP injections in rodents, cortical and hippocampal samples): significant increase
- expression of interleukins particularly IL-10 in the hippocampus (interleukins; intraperitoneal injections in rodents): significant increase
- number of bouts (entries between central and peripheral area) (Ts65Dn and 2N mice [2]): significant reduction
- increase in Fgf2 gene expression (Fgf2 mRNA; 2N mice, P=0.044): 80%
- increase in Fgf2 gene expression (Fgf2 mRNA; Ts65Dn mice, not significant): 20%
